The values below come from article PMC6092487.

Chains of the proteins cited; added tags and fusions are not shown. Lines headed by an entry give the natural chain unless they say otherwise; changes in a name come on top. Residues count along the entry.
UniProt Q8TCG5: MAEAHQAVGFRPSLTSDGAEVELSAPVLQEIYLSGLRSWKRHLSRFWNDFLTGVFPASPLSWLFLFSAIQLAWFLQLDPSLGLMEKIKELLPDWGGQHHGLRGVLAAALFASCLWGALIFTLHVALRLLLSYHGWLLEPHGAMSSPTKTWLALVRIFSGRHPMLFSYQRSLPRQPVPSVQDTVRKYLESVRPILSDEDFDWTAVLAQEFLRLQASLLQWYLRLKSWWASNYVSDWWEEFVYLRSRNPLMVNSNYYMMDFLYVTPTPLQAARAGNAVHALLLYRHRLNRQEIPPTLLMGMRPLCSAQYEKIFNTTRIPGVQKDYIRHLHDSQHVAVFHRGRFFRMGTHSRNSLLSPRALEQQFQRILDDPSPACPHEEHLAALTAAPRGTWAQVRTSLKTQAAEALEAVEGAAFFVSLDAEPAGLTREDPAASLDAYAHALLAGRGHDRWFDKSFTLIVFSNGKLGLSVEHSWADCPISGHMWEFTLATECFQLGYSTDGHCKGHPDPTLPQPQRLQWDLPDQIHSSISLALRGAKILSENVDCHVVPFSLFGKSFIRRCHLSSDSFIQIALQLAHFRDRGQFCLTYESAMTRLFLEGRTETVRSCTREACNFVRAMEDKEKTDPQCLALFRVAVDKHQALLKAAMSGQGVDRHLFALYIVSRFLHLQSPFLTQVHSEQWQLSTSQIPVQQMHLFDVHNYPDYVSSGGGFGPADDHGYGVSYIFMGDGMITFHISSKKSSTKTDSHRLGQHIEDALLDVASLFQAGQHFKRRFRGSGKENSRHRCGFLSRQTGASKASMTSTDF
UniProt F1LN46: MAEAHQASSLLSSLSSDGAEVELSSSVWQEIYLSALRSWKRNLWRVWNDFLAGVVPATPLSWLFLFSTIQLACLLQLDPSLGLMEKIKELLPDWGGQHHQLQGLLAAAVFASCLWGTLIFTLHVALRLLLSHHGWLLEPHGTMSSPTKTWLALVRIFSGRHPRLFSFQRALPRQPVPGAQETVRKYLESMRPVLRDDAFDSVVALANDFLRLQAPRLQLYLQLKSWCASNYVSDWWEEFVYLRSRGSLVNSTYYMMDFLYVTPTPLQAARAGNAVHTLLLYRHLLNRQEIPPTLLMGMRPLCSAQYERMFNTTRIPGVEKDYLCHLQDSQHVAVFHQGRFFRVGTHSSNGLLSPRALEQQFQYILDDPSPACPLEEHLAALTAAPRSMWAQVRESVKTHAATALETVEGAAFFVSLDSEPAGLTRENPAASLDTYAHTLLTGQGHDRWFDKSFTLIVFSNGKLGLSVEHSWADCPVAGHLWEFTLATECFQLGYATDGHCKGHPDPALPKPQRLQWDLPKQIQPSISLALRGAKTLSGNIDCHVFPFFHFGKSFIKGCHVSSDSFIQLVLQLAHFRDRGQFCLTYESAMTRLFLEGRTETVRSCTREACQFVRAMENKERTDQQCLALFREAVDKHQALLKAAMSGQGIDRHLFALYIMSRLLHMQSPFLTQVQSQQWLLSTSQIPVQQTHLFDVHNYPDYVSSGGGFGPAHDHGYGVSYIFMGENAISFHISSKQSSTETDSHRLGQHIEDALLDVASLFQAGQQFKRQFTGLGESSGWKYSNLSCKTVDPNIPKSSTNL
UniProt P19490, residues 19-907: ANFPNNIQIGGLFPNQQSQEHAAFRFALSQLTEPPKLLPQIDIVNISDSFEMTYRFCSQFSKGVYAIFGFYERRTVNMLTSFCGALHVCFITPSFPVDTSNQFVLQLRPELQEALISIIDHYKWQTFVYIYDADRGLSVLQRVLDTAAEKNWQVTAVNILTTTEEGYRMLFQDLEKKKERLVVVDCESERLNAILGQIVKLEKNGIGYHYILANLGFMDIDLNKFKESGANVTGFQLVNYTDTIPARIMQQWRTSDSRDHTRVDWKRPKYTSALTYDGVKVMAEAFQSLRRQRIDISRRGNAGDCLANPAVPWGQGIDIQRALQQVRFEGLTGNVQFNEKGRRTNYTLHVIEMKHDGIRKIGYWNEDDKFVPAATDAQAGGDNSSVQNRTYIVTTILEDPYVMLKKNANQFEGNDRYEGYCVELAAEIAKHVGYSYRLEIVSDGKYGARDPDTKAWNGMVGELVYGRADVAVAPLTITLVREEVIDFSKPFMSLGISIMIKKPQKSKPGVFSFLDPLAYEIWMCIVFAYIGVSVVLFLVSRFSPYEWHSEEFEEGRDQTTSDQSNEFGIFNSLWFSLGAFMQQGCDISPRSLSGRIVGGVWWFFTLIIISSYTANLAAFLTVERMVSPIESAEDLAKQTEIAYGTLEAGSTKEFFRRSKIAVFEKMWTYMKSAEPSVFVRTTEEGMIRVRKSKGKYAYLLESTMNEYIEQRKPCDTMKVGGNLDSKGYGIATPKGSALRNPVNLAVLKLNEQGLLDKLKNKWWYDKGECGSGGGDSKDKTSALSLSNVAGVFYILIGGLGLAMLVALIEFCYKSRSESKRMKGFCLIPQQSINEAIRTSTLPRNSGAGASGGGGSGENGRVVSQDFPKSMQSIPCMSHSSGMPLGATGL

Results are given in words; binding and its absence hold for the method and conditions named. In cells and extracts the contact can be indirect. Binding calls can cover weak binding; strength is not graded here.

Assay in all cases: co-IP; tsA201 cells co-transfected with GluA1 and CPT1C-GFP (or mutant), 48 h; lysis in 1% Triton TX-100, 50 mM Tris-HCl pH 8, 150 mM NaCl, 4°C; IP overnight with anti-GluA1-NT or anti-GFP, Protein-A sepharose; Western blot; in one experiment cells were treated 24 h with 50 μM Palmostatin B or 0.1% DMSO (interaction not altered)
In assay [1] the target is CPT1C(H470A)-GFP (UniProt Q8TCG5).
The target in assay [2] is CPT1C-EGFP (UniProt F1LN46).
The target of assay [3] is GluA1 subunit of AMPARs (recombinant, tsA201 cells) (UniProt P19490).

In the case of “GluA1 subunit of AMPARs (recombinant, tsA201 cells) (from UniProt P19490 19-907) (receptor)”, the binding entry in assay [1] and in assay [2] was “binds” each time.
In the case of “CPT1C(H470A)-GFP (from UniProt Q8TCG5) (enzyme)”, the binding entry in assay [3] was “binds”.
The same measure, in the same setting: in the case of “CPT1C-EGFP (from UniProt F1LN46) (enzyme)” it was “binds”.
